# From the supplement of paper PMC8728848
# This is one part of the list.
# B1: GroEL (Clostridium difficile), Q18CT5 (protein)
# chain: MAKEIKFSEETRRALEAGVNKLADTVKVTLGPKGRNVILDKKFGSPLITNDGVTIAKEIELEDRFENMGAQLVKEVATKTNDVAGDGTTTATVLAQAIIREGLKNVTAGANPILLRKGIQKAVTVAVEELKNQSRIVETQEAISQVASISAGDEEVGKLIAEAMEIVGKDGVITVEESQTMNTELDAVEGMQFDRGFVSAYMVTDVDKMEAVLNDPYILITDKKISNIQELLPVLEQIVQQGKKLLIIAEDVEGEALSTLVVNKLRGTFDVVAVKAPGFGDRRKEMLQDIAILTGAQVISEELGYDLKEADLSMLGRASSVKVTKESTTIVDGSGDKKAIEDRVTQIKHQVEQTTSDFDREKLMERLAKLAGGVAVVKVGAATEVELKERKLRIEDALNATRAAVEEGIVAGGGTAFVSVIPAIGTLIESLEGEVKLGAQIVKKALEEPLRQIAINAGLEGAVIVQNVVNSEAETGFDALNEKYVNMIEAGIVDPTKVSRSALQNAASIASTFLTTEAAVADLPEKEDAGMPGMGGGMPGMM
# Columns and labels:
# Assay in all cases: glycan array binding signal (z-score within array); higher = stronger binding
# Conditions in all cases: glycan notation: IUPAC condensed, linker removed
# Gal3S(b1-4)Glc6S = biological target: Gal3S(b1-4)Glc6S
# Method in brief: (§1)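 From the Consortium for Functional Glycomics database, 3228 arrays were curated, keeping only those whose protein sequence was available. Binding is given as a within-array Z-score averaged across arrays sharing a protein sequence and across linkers. Negative Z-scores can be read as non-binding.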
# Gal3S(b1-4)GlcNAc = biological target: Gal3S(b1-4)GlcNAc
# Method in brief: as §1
# [1] = biological target: Gal3S(b1-4)[Fuc(a1-3)]Glc6S
# Method in brief: as §1
# [2] = biological target: Gal3S(b1-4)[Fuc(a1-3)]GlcNAc
# Method in brief: as §1
# [3] = biological target: Gal3S(b1-4)[Fuc(a1-3)]GlcNAc6S
# Method in brief: as §1
# Gal3S4S(b1-4)GlcNAc = biological target: Gal3S4S(b1-4)GlcNAc
# Method in brief: as §1
# Gal3S6S(b1-4)GlcNAc = biological target: Gal3S6S(b1-4)GlcNAc
# Method in brief: as §1
# Gal3S6S(b1-4)GlcNAc6S = biological target: Gal3S6S(b1-4)GlcNAc6S
# Method in brief: as §1
# Gal4S(b1-4)GlcNAc = biological target: Gal4S(b1-4)GlcNAc
# Method in brief: as §1
# Gal4S6S(b1-4)GlcNAc = biological target: Gal4S6S(b1-4)GlcNAc
# Method in brief: as §1
# Gal6P(b1-4)GlcNAc = biological target: Gal6P(b1-4)GlcNAc
# Method in brief: as §1
# Gal6S(b1-3)GlcNAc = biological target: Gal6S(b1-3)GlcNAc
# Method in brief: as §1
# Gal6S(b1-3)GlcNAc6S = biological target: Gal6S(b1-3)GlcNAc6S
# Method in brief: as §1
# Gal6S(b1-4)Glc = biological target: Gal6S(b1-4)Glc
# Method in brief: as §1
# Gal6S(b1-4)Glc6S = biological target: Gal6S(b1-4)Glc6S
# Method in brief: as §1
# Gal6S(b1-4)GlcNAc = biological target: Gal6S(b1-4)GlcNAc
# Method in brief: as §1
# Gal6S(b1-4)GlcNAc6S = biological target: Gal6S(b1-4)GlcNAc6S
# Method in brief: as §1
# GalNAc(a1-3)Gal = biological target: GalNAc(a1-3)Gal
# Method in brief: as §1
# GalNAc(a1-3)GalNAc = biological target: GalNAc(a1-3)GalNAc
# Method in brief: as §1
# [4] = biological target: GalNAc(a1-3)GalNAc(b1-3)Gal(a1-4)Gal(b1-4)Glc
# Method in brief: as §1
# [5] = biological target: GalNAc(a1-3)GalNAc(b1-3)Gal(a1-4)Gal(b1-4)GlcNAc
# Method in brief: as §1
# GalNAc(b1-3)Gal = biological target: GalNAc(b1-3)Gal
# Method in brief: as §1
# [6] = biological target: GalNAc(b1-3)Gal(a1-4)Gal(b1-4)GlcNAc
# Method in brief: as §1
# [7] = biological target: GalNAc(b1-3)Gal(a1-4)Gal(b1-4)GlcNAc(b1-3)Gal(b1-4)Glc
# Method in brief: as §1
# [8] = biological target: GalNAc(b1-3)Gal(a1-6)Gal(b1-4)Glc
# Method in brief: as §1
# GalNAc(b1-3)GalNAc = biological target: GalNAc(b1-3)GalNAc
# Method in brief: as §1
# GalNAc(b1-3)GlcNAc = biological target: GalNAc(b1-3)GlcNAc
# Method in brief: as §1
# GalNAc(b1-4)Gal(b1-4)Glc = biological target: GalNAc(b1-4)Gal(b1-4)Glc
# Method in brief: as §1
# GalNAc(b1-4)GlcNAc = biological target: GalNAc(b1-4)GlcNAc
# Method in brief: as §1
# [9] = biological target: GalNAc(b1-4)GlcNAc(b1-2)Man
# Method in brief: as §1
# [10] = biological target: GalNAc(b1-4)GlcNAc(b1-2)Man(a1-3)[GalNAc(b1-4)GlcNAc(b1-2)Man(a1-6)]Man(b1-4)GlcNAc(b1-4)GlcNAc
# Method in brief: as §1
# [11] = biological target: GalNAc(b1-4)GlcNAc(b1-3)GalNAc(b1-4)GlcNAc
# Method in brief: as §1
# GalNAc(b1-4)GlcNAc6S = biological target: GalNAc(b1-4)GlcNAc6S
# Method in brief: as §1
# GalNAc(b1-6)GalNAc = biological target: GalNAc(b1-6)GalNAc
# Method in brief: as §1
# GalNAc3S(b1-4)GlcNAc = biological target: GalNAc3S(b1-4)GlcNAc
# Method in brief: as §1
# GalNAc3S(b1-4)GlcNAc3S = biological target: GalNAc3S(b1-4)GlcNAc3S
# Method in brief: as §1
# [12] = biological target: GalNAc3S(b1-4)[Fuc(a1-3)]GlcNAc
# Method in brief: as §1
# GalNAc4S6S(b1-4)GlcNAc = biological target: GalNAc4S6S(b1-4)GlcNAc
# Method in brief: as §1
# GalNAc6S(b1-4)GlcNAc = biological target: GalNAc6S(b1-4)GlcNAc
# Method in brief: as §1
# Glc(a1-4)Glc = biological target: Glc(a1-4)Glc
# Method in brief: as §1
# [13] = biological target: Glc(a1-4)Glc(a1-4)Glc(a1-4)Glc
# Method in brief: as §1
# Glc(a1-6)Glc(a1-6)Glc = biological target: Glc(a1-6)Glc(a1-6)Glc
# Method in brief: as §1
# [14] = biological target: Glc(a1-6)Glc(a1-6)Glc(a1-6)Glc
# Method in brief: as §1
# Glc(b1-4)Glc = biological target: Glc(b1-4)Glc
# Method in brief: as §1
# Glc(b1-6)Glc = biological target: Glc(b1-6)Glc
# Method in brief: as §1
# GlcA(b1-3)Gal = biological target: GlcA(b1-3)Gal
# Method in brief: as §1
# GlcA(b1-3)GlcNAc = biological target: GlcA(b1-3)GlcNAc
# Method in brief: as §1
# GlcA(b1-6)Gal = biological target: GlcA(b1-6)Gal
# Method in brief: as §1
# [15] = biological target: GlcA3S(b1-3)Gal(b1-4)GlcNAc(b1-2)Man
# Method in brief: as §1
# [16] = biological target: GlcA3S(b1-3)Gal(b1-4)GlcNAc(b1-3)Gal(b1-4)Glc
# Method in brief: as §1
# [17] = biological target: GlcNAc(a1-3)Gal(b1-4)GlcNAc
# Method in brief: as §1
# [18] = biological target: GlcNAc(a1-4)Gal(b1-3)GlcNAc
# Method in brief: as §1
# [19] = biological target: GlcNAc(a1-4)Gal(b1-4)GalNAc
# Method in brief: as §1
# [20] = biological target: GlcNAc(a1-4)Gal(b1-4)GlcNAc
# Method in brief: as §1
# [21] = biological target: GlcNAc(a1-4)Gal(b1-4)GlcNAc(b1-3)Gal(b1-4)Glc
# Method in brief: as §1
# [22] = biological target: GlcNAc(a1-4)Gal(b1-4)GlcNAc(b1-3)Gal(b1-4)GlcNAc
# Method in brief: as §1
# [23] = biological target: GlcNAc(a1-4)Gal(b1-4)GlcNAc(b1-3)Gal(b1-4)GlcNAc(b1-3)Gal(b1-4)GlcNAc
# Method in brief: as §1
# [24] = biological target: GlcNAc(a1-4)Gal(b1-4)GlcNAc(b1-3)Gal(b1-4)[Fuc(a1-3)]GlcNAc(b1-3)Gal(b1-4)[Fuc(a1-3)]GlcNAc
# Method in brief: as §1
# [25] = biological target: GlcNAc(a1-6)Gal(b1-4)GlcNAc
# Method in brief: as §1
# [26] = biological target: GlcNAc(b1-2)Gal(b1-3)GalNAc
# Method in brief: as §1
binder,measurement,setting,value
B1,glycan array binding signal (z-score),Gal3S(b1-4)Glc6S,1.8
same,glycan array binding signal (z-score),Gal3S(b1-4)GlcNAc,-0.238
same,glycan array binding signal (z-score),[1],3.51
same,glycan array binding signal (z-score),[2],-0.498
same,glycan array binding signal (z-score),[3],-0.072
same,glycan array binding signal (z-score),Gal3S4S(b1-4)GlcNAc,-0.674
same,glycan array binding signal (z-score),Gal3S6S(b1-4)GlcNAc,-0.083
same,glycan array binding signal (z-score),Gal3S6S(b1-4)GlcNAc6S,-0.281
same,glycan array binding signal (z-score),Gal4S(b1-4)GlcNAc,2.12
same,glycan array binding signal (z-score),Gal4S6S(b1-4)GlcNAc,0.611
same,glycan array binding signal (z-score),Gal6P(b1-4)GlcNAc,0.529
same,glycan array binding signal (z-score),Gal6S(b1-3)GlcNAc,-0.43
same,glycan array binding signal (z-score),Gal6S(b1-3)GlcNAc6S,0.137
same,glycan array binding signal (z-score),Gal6S(b1-4)Glc,0.357
same,glycan array binding signal (z-score),Gal6S(b1-4)Glc6S,0.294
same,glycan array binding signal (z-score),Gal6S(b1-4)GlcNAc,2.53
same,glycan array binding signal (z-score),Gal6S(b1-4)GlcNAc6S,-0.743
same,glycan array binding signal (z-score),GalNAc(a1-3)Gal,0.36
same,glycan array binding signal (z-score),GalNAc(a1-3)GalNAc,-0.959
same,glycan array binding signal (z-score),[4],-0.028
same,glycan array binding signal (z-score),[5],-1.13
same,glycan array binding signal (z-score),GalNAc(b1-3)Gal,-0.735
same,glycan array binding signal (z-score),[6],-0.558
same,glycan array binding signal (z-score),[7],-0.255
same,glycan array binding signal (z-score),[8],-0.691
same,glycan array binding signal (z-score),GalNAc(b1-3)GalNAc,-1.29
same,glycan array binding signal (z-score),GalNAc(b1-3)GlcNAc,0.238
same,glycan array binding signal (z-score),GalNAc(b1-4)Gal(b1-4)Glc,1.88
same,glycan array binding signal (z-score),GalNAc(b1-4)GlcNAc,-0.074
same,glycan array binding signal (z-score),[9],0.51
same,glycan array binding signal (z-score),[10],-0.749
same,glycan array binding signal (z-score),[11],-1.29
same,glycan array binding signal (z-score),GalNAc(b1-4)GlcNAc6S,0.139
same,glycan array binding signal (z-score),GalNAc(b1-6)GalNAc,-0.32
same,glycan array binding signal (z-score),GalNAc3S(b1-4)GlcNAc,1.21
same,glycan array binding signal (z-score),GalNAc3S(b1-4)GlcNAc3S,-1.1
same,glycan array binding signal (z-score),[12],-0.624
same,glycan array binding signal (z-score),GalNAc4S6S(b1-4)GlcNAc,-0.698
same,glycan array binding signal (z-score),GalNAc6S(b1-4)GlcNAc,2.3
same,glycan array binding signal (z-score),Glc(a1-4)Glc,-0.62
same,glycan array binding signal (z-score),[13],0.621
same,glycan array binding signal (z-score),Glc(a1-6)Glc(a1-6)Glc,0.436
same,glycan array binding signal (z-score),[14],-0.277
same,glycan array binding signal (z-score),Glc(b1-4)Glc,2.22
same,glycan array binding signal (z-score),Glc(b1-6)Glc,3.22
same,glycan array binding signal (z-score),GlcA(b1-3)Gal,-1.12
same,glycan array binding signal (z-score),GlcA(b1-3)GlcNAc,-1.19
same,glycan array binding signal (z-score),GlcA(b1-6)Gal,-0.633
same,glycan array binding signal (z-score),[15],-1.37
same,glycan array binding signal (z-score),[16],-0.624
same,glycan array binding signal (z-score),[17],0.513
same,glycan array binding signal (z-score),[18],0.903
same,glycan array binding signal (z-score),[19],-0.877
same,glycan array binding signal (z-score),[20],2.33
same,glycan array binding signal (z-score),[21],0.659
same,glycan array binding signal (z-score),[22],0.928
same,glycan array binding signal (z-score),[23],-0.447
same,glycan array binding signal (z-score),[24],-0.102
same,glycan array binding signal (z-score),[25],-0.498
same,glycan array binding signal (z-score),[26],-0.267
